Test [1] has as its target T1, RARγ-Flag (retinoic acid receptor gamma with Flag tag) (UniProt P13631).
T1 sequence: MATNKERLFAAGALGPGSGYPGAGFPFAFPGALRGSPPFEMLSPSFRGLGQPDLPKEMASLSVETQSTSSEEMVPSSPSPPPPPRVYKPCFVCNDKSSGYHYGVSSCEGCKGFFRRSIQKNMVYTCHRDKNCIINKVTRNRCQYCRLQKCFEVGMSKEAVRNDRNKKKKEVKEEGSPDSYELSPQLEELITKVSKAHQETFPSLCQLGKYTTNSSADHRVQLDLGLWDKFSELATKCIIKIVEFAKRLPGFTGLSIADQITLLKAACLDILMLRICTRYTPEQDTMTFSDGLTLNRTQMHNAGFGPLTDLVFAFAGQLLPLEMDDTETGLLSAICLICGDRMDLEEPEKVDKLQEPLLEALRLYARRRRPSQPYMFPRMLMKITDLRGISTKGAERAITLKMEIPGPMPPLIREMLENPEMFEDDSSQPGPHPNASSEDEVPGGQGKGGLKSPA
The test can be described thus: co-IP; lysate of RARγ-Flag C28/I2 cells, IP with anti-Flag antibody overnight at 4°C, protein A/G magnetic beads, washed with TBS four times, western blot. For orientation: Immunoblotting shows a protein as a band on a membrane.

Chains of the proteins cited; added tags and fusions are not shown.
UniProt P25963: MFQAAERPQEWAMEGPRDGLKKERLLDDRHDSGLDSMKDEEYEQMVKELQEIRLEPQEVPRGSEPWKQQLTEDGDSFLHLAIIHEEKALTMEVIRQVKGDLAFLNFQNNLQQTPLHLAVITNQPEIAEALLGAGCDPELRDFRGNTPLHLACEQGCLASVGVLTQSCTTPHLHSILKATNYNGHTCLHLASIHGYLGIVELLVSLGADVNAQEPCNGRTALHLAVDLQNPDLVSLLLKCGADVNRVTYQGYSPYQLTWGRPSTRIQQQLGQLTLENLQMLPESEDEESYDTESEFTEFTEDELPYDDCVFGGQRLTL
UniProt Q04206: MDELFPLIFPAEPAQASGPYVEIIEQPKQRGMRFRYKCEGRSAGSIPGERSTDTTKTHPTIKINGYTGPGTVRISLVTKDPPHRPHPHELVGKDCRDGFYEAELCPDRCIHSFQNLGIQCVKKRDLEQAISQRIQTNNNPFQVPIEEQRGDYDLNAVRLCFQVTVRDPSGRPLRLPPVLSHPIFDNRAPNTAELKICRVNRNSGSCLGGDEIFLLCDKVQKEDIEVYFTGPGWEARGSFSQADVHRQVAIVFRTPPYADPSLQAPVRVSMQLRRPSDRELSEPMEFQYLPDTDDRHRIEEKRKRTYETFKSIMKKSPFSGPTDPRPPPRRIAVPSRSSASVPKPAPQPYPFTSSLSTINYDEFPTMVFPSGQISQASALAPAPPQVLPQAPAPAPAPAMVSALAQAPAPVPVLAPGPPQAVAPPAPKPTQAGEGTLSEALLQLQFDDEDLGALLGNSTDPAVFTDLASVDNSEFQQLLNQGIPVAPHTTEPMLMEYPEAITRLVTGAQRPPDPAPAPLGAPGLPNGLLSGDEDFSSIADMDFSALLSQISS

The target of test [2] is T2, Retinoic acid receptor gamma (RARγ), endogenous (human (endogenous in C28/I2)) (UniProt P13631).
T2 sequence: T1 sequence
Kind of test: co-IP; endogenous co-IP: C28/I2 cell lysate, IP with rabbit anti-RARγ antibody overnight at 4°C, protein A/G magnetic beads, washed with TBS four times, western blot.

The results in this text go back to article PMC9663240.

No constants are given. Whether binding was seen depends on the method and setting. Binding seen in cells or lysates may run through a third protein. Some entries that bind do so weakly or less than the wild type. For some of these results: Where a sequence is shown, tags or fusion partners need not be part of it.

In the case of IκBα (from UniProt P25963 1-317), the binding entry in test [1] and in test [2] was “binds” each time.

For the substance P65 (from UniProt Q04206 1-551), the binding result in test [1] and in test [2] was “no binding” throughout.
